# Reference: PubChem BioAssay AID1347075 (National Center for Advancing Translational Sciences (NCATS), 2019)
# The whole screen tested about 400,000 compounds, of which about 5,500 (1.4%) were called active. The inconclusive results got no clear call from the source; some entries with a clear call stand among them for comparison. Calls come from the whole dose curve; as a rule, active = well fitted cell-killing curve with a large enough effect; inconclusive = small, poorly fitted or top-dose-only effect, or effect the other way; inactive = flat fitted curve, though single readings scatter. A potency beside an inconclusive call is a rough fit, not a confirmed value.
# Test: qHTS assay for MDR1-selective chemotherapeutics: Primary screen using the parental adenocarcinoma cell KB-3-1; note: nearly all actives have a fitted effect of over 60% in size
# Conditions: KB-3-1 viability, CellTiter-Glo ATP luminescence, 72 h; activity change, negative = cytotoxic: at 46.1 µM (top of the series)
# In short: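 Luminescent ATP read-out (CellTiter-Glo) measures survival of drug-naive KB-3-1 cells after 72 h compound exposure at 37 °C. Titration series was screened from lowest to highest concentration, with DMSO vehicle plates as background controls.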
# % is set by controls: 0 for no effect and ±100 for the full control effect; potency is the fitted concentration of half-maximal effect.
SMILES,Potency,"activity change, negative = cytotoxic"
O=C(Nc1ccc([N+](=O)[O-])cc1)C(Cc1ccccc1)N1C(=O)c2cccc3cccc(c23)C1=O (configuration not stated),"inconclusive: 14.6 µM [cytotoxic, partial curve]",–
CCNc1oc(/C=C/c2ccc(OCC)cc2)nc1C#N,"inconclusive: 29.1 µM [cytotoxic, partial curve, poor fit]",–
COC(=O)[C@@]1(Cc2ccc(F)cc2)[C@H]2c3cc(C(=O)N4CCCC4)n(Cc4ccc(C)c(F)c4F)c3C[C@H]2CN1C(=O)c1ccccc1,"inconclusive: 16.4 µM [cytotoxic, single point]",–
c1cncc(-c2nc(NCCCN3CCOCC3)c3c4c(sc3n2)CCC4)c1,"inconclusive: 29.1 µM [rising, single point]",–
CC(=O)c1ccc(N2CCN(c3ncnc4c3cnn4-c3cc(Cl)ccc3C)CC2)cc1,"inconclusive: 7.31 µM [cytotoxic, partial curve, poor fit]",–
Cc1ccc(CNC(=O)CN2N=C(c3ccccc3)CCC2=O)cc1,–,inactive: -1.15%
CCCN1Cc2cccc(C(=O)NCc3ccc(C)cc3)c2C1=O,"inconclusive: 0.82 µM [cytotoxic, full curve, poor fit]",–
COc1cccc(Nc2nc(-c3sc(NC(=O)CC(C)C)nc3C)cs2)c1,"inconclusive: 16.4 µM [cytotoxic, single point]",–
COc1ccc(N2C(=O)C3C(C2=O)C(C(=O)c2ccccc2)N2CCCC32)cc1 (configuration not stated),"inconclusive: 29.1 µM [cytotoxic, single point]",–
Cc1ccc(C(C)NC(=O)c2ccc3c(c2)OCCO3)cc1C (configuration not stated),"inconclusive: 29.1 µM [cytotoxic, single point]",–
O=C(c1ccc2c(c1)N(Cc1ccc(Cl)cc1)C(=O)c1ccccc1S2(=O)=O)N1CCN(c2ccccn2)CC1,"inconclusive: 29.1 µM [cytotoxic, single point]",–
Cn1cccc1C(=O)Nc1nc(-c2ccccn2)cs1,active: 10.3 µM,–
COC(=O)c1sccc1-c1ccc(C(=O)Nc2ccccc2)o1,"inconclusive: 23.1 µM [cytotoxic, single point]",–
COc1ccc(CCNC(=O)C(=O)NCC2OCCN2S(=O)(=O)c2ccc(C)cc2)cc1OC (configuration not stated),–,inactive: -5.67%
COc1ccc(NC(=O)c2cc(-c3cc(F)ccc3OC(C)C)n[nH]2)c(C)c1,–,inactive: -0.186%
CCOC(=O)c1ccccc1NC(=O)CSc1nc2ccccc2c(=O)n1CCCN1CCOCC1,–,inactive: -12.6%
CCc1ncc(C(O)c2ccc(Cl)cc2)n1Cc1ccccc1 (configuration not stated),"inconclusive: 25.9 µM [cytotoxic, single point]",–
Nc1ccccc1NC(=O)c1ccccc1,"inconclusive: 29.1 µM [cytotoxic, single point]",–
CC(C#N)(CCc1ccccn1)CCc1ccccn1,"inconclusive: 11.6 µM [rising, partial curve]",–
Cc1cc(C)nc(/N=C(\N)Nc2ccc3c(c2)OCCO3)n1,"inconclusive: 10.3 µM [cytotoxic, partial curve, poor fit]",–
CC(C)CCN1CCN(Cc2nc(-c3ccccc3)cs2)CC1CCO (configuration not stated),"inconclusive: 29.1 µM [rising, single point]",–

SMILES,Potency,"activity change, negative = cytotoxic"
COc1ccc(/C=N/NC(=O)c2nc(-c3ccccc3)n(-c3ccccc3)n2)c(O)c1,"inconclusive: 5.8 µM [cytotoxic, full curve]",–
COc1ccc2oc(C(=O)OCC(=O)NCc3ccco3)c(C)c2c1,–,inactive: 2.3%
O=C(CCC(=O)N1CCOCC1)NCCc1ccccc1,–,inactive: -5.15%
O=C1N(c2ccccc2C(F)(F)F)O[C@@]1(c1ccccc1)C1CCCCC1,–,inactive: 0%
Cc1ccc(-c2ccc(S(=O)(=O)Nc3cccnc3)cc2)cc1,"inconclusive: 20.6 µM [cytotoxic, partial curve, poor fit]",–
CCn1c(=NC(=O)CCS(=O)(=O)c2ccccc2)sc2cccc(OC)c21,"inconclusive: 29.1 µM [cytotoxic, single point]",–
O=C(Nc1cccc(-c2ccc(N3CCCCC3)nn2)c1)c1ccco1,"inconclusive: 4.61 µM [rising, partial curve]",–
COc1ccc(-c2noc(CNC(=O)c3ccc4c(c3)OCO4)n2)cc1,"inconclusive: 11.6 µM [cytotoxic, partial curve, poor fit]",–
C#CCN(C(=O)c1ccc(OC2CCN(C(=O)CCOC)CC2)cc1)C1CCCCC1,"inconclusive: 20.6 µM [cytotoxic, single point]",–
CNc1ccc(C=C2c3ccccc3-c3ccccc32)cc1,"inconclusive: 29.1 µM [cytotoxic, single point]",–
CC(C)(C)N(Cc1nc(-c2ccccc2)no1)C(=O)c1ccc2c(c1)OCO2,"inconclusive: 16.4 µM [cytotoxic, partial curve, poor fit]",–
Cc1csc2c(N3CCN(S(=O)(=O)c4ccc(Cl)cc4)CC3)ncnc12,"inconclusive: 25.9 µM [rising, single point]",–
CCC(C(=O)NC1CCCC1)N(C(=O)Cn1nnc(-c2ccc(C)o2)n1)C(C)(C)C (configuration not stated),–,inactive: 3.05%
O=C(NC1CCCC1)C(c1ccncc1)N(Cc1ccccc1)C(=O)c1ccc(-c2ccccc2)[nH]1 (configuration not stated),"inconclusive: 18.4 µM [cytotoxic, single point]",–
Cc1ccc(CCNC(=O)c2c(C)nn(-c3ccc(F)cc3)c2-n2cccc2)cc1,active: 3.26 µM,–
Cc1cccc(NC(=O)c2ccc3c(c2)C(=O)N(c2ccccn2)C3=O)c1C,"inconclusive: 25.9 µM [rising, single point]",–
CCCC(C)C(=O)Nc1nc(C)c(-c2csc(Nc3cc(OC)ccc3OC)n2)s1 (configuration not stated),"inconclusive: 20.6 µM [cytotoxic, single point]",–
C#CC[N+](CC)(CC)CC#Cc1cccc(Cl)c1,"inconclusive: 29.1 µM [cytotoxic, partial curve, poor fit]",–
COc1ccc(NC(=O)Nc2nnc(N(CC(C)C)CC(C)C)s2)c(OC)c1,"inconclusive: 29.1 µM [cytotoxic, single point]",–
O=C1NCCCCC1NS(=O)(=O)c1cccc(C(F)(F)F)c1 (configuration not stated),–,inactive: 1.78%
COc1cccc(NC(=S)N2CCCC2)c1,–,inactive: 5.02%

# A second format for 2 compounds above:
SMILES	Potency	activity change, negative = cytotoxic
CCC(C(=O)NC1CCCC1)N(C(=O)Cn1nnc(-c2ccc(C)o2)n1)C(C)(C)C (configuration not stated)	–	inactive: 3.05%
O=C(NC1CCCC1)C(c1ccncc1)N(Cc1ccccc1)C(=O)c1ccc(-c2ccccc2)[nH]1 (configuration not stated)	inconclusive: 18.4 µM [cytotoxic, single point]	–
